A short description of the data set: Metabolites detected (Appendix 3, Tables 7 and 8: putative metabolites, ratio between two groups, p-value). Conditions: for Relative Area Control Mean / Concentration (μM) Control Mean: Control group; for Relative Area Control Mean / Relative Area Treatment Mean: putative metabolite assigned by m/z and MT (HMT DB); for Relative Area Treatment Mean / Concentration (μM) Treatment Mean: Treatment group; for Comparative Analysis Control vs Treatment Ratio: ratio of averaged detection values, the latter (Treatment) as denominator; for Concentration (μM) Control Mean / Concentration (μM) Treatment Mean: quantitative estimation of target metabolites.

For 1-Methylnicotinamide, the “Relative Area Control Mean” value is listed as 2.9E−04, the “Relative Area Treatment Mean” value was found to be 2.4E−04 and the “Comparative Analysis Control vs Treatment Ratio” value is listed as 1.2. Regarding `CCC(O)C(=O)O` (stereo not drawn) [2-Hydroxybutyric acid], the “Concentration (μM) Control Mean” value is 27 µM and the “Concentration (μM) Treatment Mean” value was 25 µM.

Turning to `O=C(O)CCC(=O)C(=O)O` [2-Oxoglutanic acid], the “Concentration (μM) Control Mean” value was 47 µM and the “Concentration (μM) Treatment Mean” value is 72 µM. In the same order, the values of `CC(C)C(=O)C(=O)O` [2-Oxoisovaleric acid] are 7.6 µM and 6.6 µM.

On to `CC(O)CC(=O)O` (stereo not drawn) [3-Hydrocybutric acid], for which the “Concentration (μM) Control Mean” value is 406 µM and the “Concentration (μM) Treatment Mean” value was 237 µM. In the same order, the values of `Nc1ncnc2c1ncn2[C@@H]1O[C@H](COP(=O)(O)OP(=O)(O)O)[C@@H](O)[C@H]1O` [ADP] are 1.0 µM and 4.7 µM. The like results for `Nc1ncnc2c1ncn2[C@@H]1O[C@H](COP(=O)(O)O)[C@@H](O)[C@H]1O` [AMP] were, in that order, 3.4 µM and 5.1 µM. The like results for `Nc1ncnc2c1ncn2[C@@H]1O[C@H](COP(=O)(O)OP(=O)(O)OP(=O)(O)O)[C@@H](O)[C@H]1O` [ATP] were, in that order, 2.5 µM and 13 µM.

In the case of `C[C@H](N)C(=O)O` [Ala], the “Concentration (μM) Control Mean” value was 282 µM and the “Concentration (μM) Treatment Mean” value is 355 µM. Regarding `N=C(N)NCCC[C@H](N)C(=O)O` [Arg], the “Concentration (μM) Control Mean” value is 90 µM and the “Concentration (μM) Treatment Mean” value was 111 µM.

Take `NC(=O)C[C@H](N)C(=O)O` [Asn]: the “Concentration (μM) Control Mean” value was 33 µM and the “Concentration (μM) Treatment Mean” value was 51 µM. On to `N[C@@H](CC(=O)O)C(=O)O` [Asp], for which the “Concentration (μM) Control Mean” value was 6.3 µM and the “Concentration (μM) Treatment Mean” value is 8.3 µM. For `C[N+](C)(C)CC(=O)O` [Bataine], the “Concentration (μM) Control Mean” value was 68 µM and the “Concentration (μM) Treatment Mean” value was 75 µM.

In the case of `NCCC(=O)N[C@@H](Cc1cnc[nH]1)C(=O)O` [Carnosine], the “Concentration (μM) Control Mean” value was 0.6 µM and the “Concentration (μM) Treatment Mean” value is 0.6 µM. Consider `C[N+](C)(C)CCO` [Choline], for which the “Concentration (μM) Control Mean” value is 23 µM and the “Concentration (μM) Treatment Mean” value was 22 µM. In the same order, the values of `O=C(O)CC(O)(CC(=O)O)C(=O)O` [Citric acid] are 335 µM and 332 µM. The like results for `NC(=O)NCCC[C@H](N)C(=O)O` [Citrulline] were, in that order, 63 µM and 70 µM. In the same order, the values of `CN(CC(=O)O)C(=N)N` [Creatine] are 124 µM and 156 µM. Regarding `NCCCC(=O)O` [GABA], the “Concentration (μM) Control Mean” value was 0.4 µM and the “Concentration (μM) Treatment Mean” value is 1.0 µM.

As to `Nc1nc2c(ncn2[C@@H]2O[C@H](COP(=O)(O)OP(=O)(O)O)[C@@H](O)[C@H]2O)c(=O)[nH]1` [GDP], the “Concentration (μM) Treatment Mean” value was 3.0 µM. Still for that read-out and setting: the figure for `Nc1nc2c(ncn2[C@@H]2O[C@H](COP(=O)(O)OP(=O)(O)OP(=O)(O)O)[C@@H](O)[C@H]2O)c(=O)[nH]1` [GTP] is 4.5 µM. Regarding `NC(=O)CC[C@H](N)C(=O)O` [Gln], the “Concentration (μM) Control Mean” value is 672 µM and the “Concentration (μM) Treatment Mean” value was 729 µM. The like results for `N[C@@H](CCC(=O)O)C(=O)O` [Glu] were, in that order, 25 µM and 32 µM. The like results for `O=C(O)[C@H](O)[C@@H](O)[C@H](O)[C@H](O)CO` [Gluconic acid] were, in that order, 18 µM and 1.5 µM. The like results for `O=C[C@H](O)[C@@H](O)[C@H](O)[C@H](O)COP(=O)(O)O` [Glucose 6-phosphate] were, in that order, 2.3 µM and 2.6 µM.

Regarding `NCC(=O)O` [Gly], the “Concentration (μM) Control Mean” value is 327 µM and the “Concentration (μM) Treatment Mean” value is 319 µM. Turning to `O=P(O)(O)OCC(O)CO` (stereo not drawn) [Glycerol 3-phosphate], the “Concentration (μM) Control Mean” value was 11 µM and the “Concentration (μM) Treatment Mean” value was 11 µM.

For `O=C(O)CO` [Glycolic acid], the “Concentration (μM) Control Mean” value was 72 µM and the “Concentration (μM) Treatment Mean” value was 74 µM. In the same order, the values of `O=CC(=O)O` [Glyoxylic acid] are 15 µM and 16 µM. `N[C@@H](Cc1c[nH]cn1)C(=O)O` [His]: the “Concentration (μM) Control Mean” value is 58 µM and the “Concentration (μM) Treatment Mean” value was 70 µM.

In the case of `N[C@@H](CCO)C(=O)O` [Homoserine], the “Concentration (μM) Control Mean” value was 0.9 µM and the “Concentration (μM) Treatment Mean” value was 0.9 µM. Turning to `O=C(O)[C@@H]1C[C@@H](O)CN1` [Hydroxyproline], the “Concentration (μM) Control Mean” value was 17 µM and the “Concentration (μM) Treatment Mean” value was 18 µM.

Turning to `CC[C@H](C)[C@H](N)C(=O)O` [Ile], the “Concentration (μM) Control Mean” value is 84 µM and the “Concentration (μM) Treatment Mean” value was 97 µM.

Turning to `O=C(O)CC(C(=O)O)C(O)C(=O)O` (stereo not drawn) [Isocitric acid], the “Concentration (μM) Control Mean” value was 26 µM and the “Concentration (μM) Treatment Mean” value was 26 µM. As for `CC(O)C(=O)O` (stereo not drawn) [Lactic acid], the “Concentration (μM) Control Mean” value was 4,704 μM and the “Concentration (μM) Treatment Mean” value is reported as 6,362 μM. With `CC(C)C[C@H](N)C(=O)O` [Leu], the “Concentration (μM) Control Mean” value is 125 µM and the “Concentration (μM) Treatment Mean” value is 147 µM. `NCCCC[C@H](N)C(=O)O` [Lys]: the “Concentration (μM) Control Mean” value was 230 µM and the “Concentration (μM) Treatment Mean” value was 287 µM.

Regarding `O=C(O)CC(O)C(=O)O` (stereo not drawn) [Malic acid], the “Concentration (μM) Control Mean” value was 60 µM and the “Concentration (μM) Treatment Mean” value is 75 µM. In the same order, the values of `CSCC[C@H](N)C(=O)O` [Met] are 32 µM and 51 µM. The like results for `CN(C)CC(=O)O` [N,N-Dimethylglycine] were, in that order, 5.8 µM and 5.7 µM.

On to `N[C@@H](Cc1ccccc1)C(=O)O` [Phe], for which the “Concentration (μM) Control Mean” value is 76 µM and the “Concentration (μM) Treatment Mean” value is 101 µM.

For the molecule `O=C(O)[C@@H]1CCCN1` [Pro], the “Concentration (μM) Control Mean” value was 73 µM and the “Concentration (μM) Treatment Mean” value is 96 µM. Regarding `NCCCCN` [Putrescine], the “Concentration (μM) Treatment Mean” value is 1.7 µM.

Take `CC(=O)C(=O)O` [Pyruvic acid]: the “Concentration (μM) Control Mean” value is 137 µM and the “Concentration (μM) Treatment Mean” value was 177 µM. In the same order, the values of `O=C(CO)[C@H](O)[C@H](O)COP(=O)(O)O` [Ribulose 5-phosphate] are 2.8 µM and 3.0 µM. The like results for `CNCC(=O)O` [Sarcosine] were, in that order, 8.4 µM and 9.8 µM. As to `N[C@@H](CO)C(=O)O` [Ser], the “Concentration (μM) Control Mean” value was 103 µM and the “Concentration (μM) Treatment Mean” value is 129 µM.

On to `NCCCCNCCCN` [Spermidine], for which the “Concentration (μM) Control Mean” value is 1.2 µM and the “Concentration (μM) Treatment Mean” value was 1.2 µM. On to `O=C(O)CCC(=O)O` [Succinic acid], for which the “Concentration (μM) Control Mean” value is 139 µM and the “Concentration (μM) Treatment Mean” value was 164 µM. Take `C[C@@H](O)[C@H](N)C(=O)O` [Thr]: the “Concentration (μM) Control Mean” value was 122 µM and the “Concentration (μM) Treatment Mean” value was 148 µM. The like results for `Cc1cn([C@H]2C[C@H](O)[C@@H](CO)O2)c(=O)[nH]c1=O` [Thymidine] were, in that order, 3.9 µM and 4.0 µM. In the same order, the values of `N[C@@H](Cc1c[nH]c2ccccc12)C(=O)O` [Trp] are 70 µM and 88 µM. `N[C@@H](Cc1ccc(O)cc1)C(=O)O` [Tyr]: the “Concentration (μM) Control Mean” value was 76 µM and the “Concentration (μM) Treatment Mean” value was 95 µM. In the case of `O=c1ccn([C@@H]2O[C@H](COP(=O)(O)OP(=O)(O)OP(=O)(O)O)[C@@H](O)[C@H]2O)c(=O)[nH]1` [UTP], the “Concentration (μM) Treatment Mean” value is 2.2 µM. Turning to `CC(C)[C@H](N)C(=O)O` [Val], the “Concentration (μM) Control Mean” value is 191 µM and the “Concentration (μM) Treatment Mean” value was 222 µM. On to `O=C(O)/C=C(/CC(=O)O)C(=O)O` [cis -Aconitic acid], for which the “Concentration (μM) Control Mean” value is 23 µM and the “Concentration (μM) Treatment Mean” value was 23 µM. Consider `NCCC(=O)O` [β-Ala], for which the “Concentration (μM) Control Mean” value was 1.2 µM and the “Concentration (μM) Treatment Mean” value was 1.3 µM. As to Cysteine glutathione disulfide, the “Relative Area Control Mean” value came out at 6.2E−03, the “Relative Area Treatment Mean” value stood at 4.9E−03 and the “Comparative Analysis Control vs Treatment Ratio” value came out at 1.2.

The values above are taken from patent US20240066075A1, “METHODS AND USES OF MICROBIOME COMPOSITIONS, COMPONENTS, OR METABOLITES FOR TREATING EYE DISORDERS” (MarvelBiome, Inc., priority 2021, published 2024).
